Screening data, single-dose tests

Amino acid sequences for entries named in this document (tags omitted).
UniProt P9WPC5, whole entry: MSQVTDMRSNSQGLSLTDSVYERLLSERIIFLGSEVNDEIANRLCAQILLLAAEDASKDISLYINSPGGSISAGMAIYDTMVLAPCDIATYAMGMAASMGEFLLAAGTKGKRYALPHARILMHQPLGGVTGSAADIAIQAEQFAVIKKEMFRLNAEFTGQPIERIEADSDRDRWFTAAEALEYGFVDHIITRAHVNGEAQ
UniProt P9WPC3, whole entry partner: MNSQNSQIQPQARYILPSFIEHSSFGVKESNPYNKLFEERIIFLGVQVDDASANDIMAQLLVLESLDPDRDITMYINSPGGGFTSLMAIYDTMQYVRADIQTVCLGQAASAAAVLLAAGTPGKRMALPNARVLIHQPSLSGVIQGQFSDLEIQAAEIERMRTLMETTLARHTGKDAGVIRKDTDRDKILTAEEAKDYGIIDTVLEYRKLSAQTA

Results are given as percent effect. The controls that fix the scale are not given in the record; negative values are as filed. This is an unselected part of the compounds tested. A dash means the value is not listed here; it may have been measured.

A: 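Assay of Toxoplasma gondii numbers, read through their beta-galactosidase reporter with a colour substrate. Tested at 10 µM. The record gives no direction; the compounds picked for IC50 retests had high values, so higher reads as fewer parasites. Size under these conditions: about 67,000 compounds, about 260 of them at 50% or above in at least one test.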
B: 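ClpP1P2, Mycobacterium tuberculosis (UniProt P9WPC5 and UniProt P9WPC3). Protease assay of ClpP1P2, read by the AMC dye that it sets free. Tested at 50 µM. Direction is inferred from only a few compounds that gave an IC50; most scored high, so higher reads as stronger inhibition. Most other retested compounds had strongly negative values. About 69,000 compounds were tested under these conditions; 0.015% (about 10) showed 50% or more at least once.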

structure | A | B
[H][C@]12CN(c3ncccn3)C[C@@]1([H])S(=O)(=O)CC[C@@H]2C(=O)NC(C)C | 3.662 | -
COCCN1CCC2(CCCN(Cc3ccoc3)C2)C1=O (stereo unspecified) | - | -4.704
CC(C)c1noc(CCC(=O)NCC2CCOC2)n1 (stereo unspecified) | 5.532 | 5.643
[H][C@@]12CN(S(=O)(=O)c3ccccc3)C[C@@]1([H])N(CC1CC1)C(=O)CO2 | 2.564 | -
[H][C@@]12CN(C(=O)N(C)C)C[C@]1([H])C(=O)NC21CCN(C(=O)CC(C)C)CC1 | -25.43 | -
[H][C@]12CC[C@]([H])(CN(S(=O)(=O)N(C)C)C1)N(Cc1ccc(F)c(F)c1)C2 | 15.28 | -
O=S(=O)(C1CC1)N1CC[C@]2(C[C@@H](Oc3ncccc3F)CO2)C1 | - | 0.6766
Cc1cc(NC(=O)NCC(c2ccc(C)o2)N2CCOCC2)n(C)n1 (stereo unspecified) | -2.474 | -4.342
CCN(C)C(=O)c1ccc(N2CCC(Oc3cccc(F)c3)CC2)nc1 | -7.61 | -11.59
O=C(CN1CCCCC1)Nc1ncc(Br)cc1Br | 14.04 | 14.6
CC(C)c1noc(CCNC(=O)N2CCSC(C(C)C)C2)n1 (stereo unspecified) | 1.216 | -7.789
CC(C)CNC(=O)CN(Cc1ccc(F)cc1)S(C)(=O)=O | -7.706 | -9.145
OC(CN1CCC(c2ccn[nH]2)CC1)c1cc(F)ccc1F (stereo unspecified) | 1.485 | -13.51
CCCc1cncnc1N1CCC(NCCc2nc(O)cc(O)n2)CC1 | 0.1189 | -2.48
Cc1ccc2nc(C)c(C)c(C(=O)N3CCS(=O)(=O)CC3)c2c1 | -0.9377 | 0.4078
O=C(Nc1cc(C(F)(F)F)c[nH]c1=O)C1CCCN1 (stereo unspecified) | - | -1.548
O=C(CC1CC1)N1CCCC2(CCC(=O)N2CC2CC2)CC1 (stereo unspecified) | 7.985 | -6.106
N[C@@H]1CCCN(C(=O)Cc2c[nH]c3ccccc23)[C@H]1c1ccccc1F | 8.626 | -5.027
O=C(Nc1ccc(I)cc1C(=O)NCCN1CCOCC1)c1cccs1 | 7.186 | 0.5771
CC(C)CN1CCNC(=O)C12CCN(C(=O)c1ccccn1)CC2 | -12.12 | -2.487
Cc1cnccc1CN(C)C1CCN(c2ncnc3[nH]cnc23)CC1 | -4.366 | -3.246
Nc1nccc(-c2c[nH]nc2C2CCCCC2)n1 | 5.952 | -0.5553
Cc1cc(CNS(=O)(=O)CCCC#N)ccc1N(C)C | 8.149 | 13.42
O=C(Cc1ccsc1)NCCc1ccoc1 | -17.75 | -0.07703
CN1CC(C(=O)Nc2ccc(OCC(F)(F)C(F)F)nc2)CC1=O (stereo unspecified) | -8.946 | -5.144
CNc1nc(C(=O)N2CCN(c3cc(C)nc(C)c3)CC2)cs1 | -10.53 | -2.43
CCNC(=O)c1ccnc(N2CCCC(COc3ccccc3C)C2)c1 (stereo unspecified) | -9.461 | -7.437
Cc1nn(-c2ccccc2)cc1C(=O)N1CCCC(n2ccnc2C)C1 (stereo unspecified) | -12.83 | -18.86
COCCN1CCC(c2ncc(C(=O)N3CCOCC3)c(C)n2)CC1 | 3.488 | -20.24
COC(=O)c1ccc(N2CCN(C(=O)C3CCC3)C(C)C2)cc1 (stereo unspecified) | 5.627 | -5.778
CC(NCc1ccsc1)c1ccc2c(c1)NC(=O)CO2 (stereo unspecified) | 7.679 | -30.56
CC1c2ncc(COCC3CCOCC3)n2CCN1C(=O)c1ccoc1 (stereo unspecified) | 3.048 | 11.77
Cc1nc(NC(=O)c2ccc(-n3ncc(C#N)c3N)cc2)sc1C | -4.051 | -7.205
CCN(C(C)=O)c1nc(CN2CCN(c3nccs3)CC2)cs1 | 7.262 | 3.065
Cc1cc(N2CCN(C(=O)Cc3ccc4c(c3)OCO4)CC2)cc(C)n1 | 3.223 | -26.79
COc1ccc(Cl)cc1C(C(=O)O)N(C)Cc1ccon1 (stereo unspecified) | 2.482 | -0.16
CCC(C)N(C)CCNC(=O)c1ccccc1OCCOC (stereo unspecified) | -7.934 | -4.132
COCCn1cc2c(n1)C(CNCc1nccs1)OCC2 (stereo unspecified) | - | -13.14
Cn1cc(Br)c(C(=O)NCCn2cc(Br)cn2)n1 | 5.838 | -1.797
CC(Sc1n[nH]c(-c2ccc3c(c2)CCC3)n1)C(N)=O (stereo unspecified) | 10.42 | 2.987
Cc1noc([C@H]2C[C@H]3OCC[C@H]3N(Cc3cccs3)C2)n1 | - | -3.688
CS(=O)(=O)NCc1cnc2n1CCN(Cc1ccccn1)CC2 | - | -17.11
Cc1nccc(C2CCCCN2Cc2ccc(F)cc2)n1 (stereo unspecified) | 4.134 | -11.89
[H][C@]12CCCN(S(=O)(=O)c3cccc(F)c3)[C@@]1([H])CN(C(=O)C1CC1)C2 | 13.89 | -
COc1cccc(CNc2cc(C)nc(-c3ccncc3)n2)c1O | 1.654 | 2.92
O=C(Cn1cnc2ccsc2c1=O)NCCCc1nnc2ccccn12 | -31.68 | -13.51
CC(C)c1sc(Cl)nc1C(=O)NCc1ccncc1 | 2.874 | -26.45
CN(C)[C@@H]1CCN(c2ncccn2)[C@H]1Cc1cccnc1 | - | 4.669
CN(C)C(=O)[C@@H]1C[C@@H]2CCN(C3CCOCC3)C[C@H]2O1 | - | -2.088
Cc1cccc(CN2CCC3(CCCN(C(=O)NC(C)C)C3)C2=O)n1.O=C(O)C(F)(F)F (stereo unspecified) | 8.126 | -
Cn1c2c(ccc1=O)CC(NC(=O)c1ccsc1)CC2 (stereo unspecified) | -7.613 | -3.315
CCC(=O)NCCc1cc(N2CCN(C(C)=O)CC2)nc(C2CC2)n1 | -2.755 | -3.613
COc1c(CNC2CCc3c(F)cccc32)c(C)nn1C (stereo unspecified) | - | -19.77
Cc1cccc(CN(C(=O)CCn2cncn2)C(C)C)c1 | 19.77 | -1.309
CSCc1cccc(S(=O)(=O)NCc2cnn(C)c2C)c1 | 1.234 | 2.745
CN(C)CCCNC(=O)c1cc(-c2ccc3c(c2)CCO3)n[nH]1 | 12.55 | -6.837
Cc1cc(CN2CCC(CNC(=O)c3ccc(C#N)cc3)C2)[nH]n1 (stereo unspecified) | -25.01 | -0.4936
COc1ccccc1C1(C(=O)NCCN2CCOCC2)CCOCC1 | 6.605 | 10.93
CCCn1cc(-c2ccnc(NC3CCc4ccccc43)n2)c(C)n1 (stereo unspecified) | 25.61 | -7.64
CC(Cn1cccn1)NC(=O)c1cc(C2CC2)nc2c1cnn2C (stereo unspecified) | 0.5483 | -4.191
N#Cc1ccc(OCCNCCn2cccn2)cc1 | -12.58 | 9.466
CC(CO)NC(=O)Nc1ccc(Cl)cc1OCC(F)(F)F (stereo unspecified) | 5.266 | -1.803
c1c(CN2CCCCC2)nc2n1CCNC2 | - | 13.68
CN(C)c1ncc2c(n1)C1(CCN(Cc3ccccc3)C1)COC2 (stereo unspecified) | - | -7.475
COCCN1C[C@H]2CCC[C@@H](CNc3ncccn3)[C@H]2C1 | - | -1.627
CC(C)NC1CCc2c(ccc(=O)n2CCN2CCCC2=O)C1.O=C(O)C(F)(F)F (stereo unspecified) | -16.83 | -

Source: ChEMBL document CHEMBL3988442, “University of Dundee, Small-Polar-MMV Screening Library” (2021).